{"source": "patent US20230174662A1", "about": "“METHODS OF TREATING CASTRATE-RESISTANT PROSTATE CANCER” (FONDAZIONE PER L'ISTITUTO ONCOLOGICO DI RICERCA (IOR), priority 2019, published 2023)", "key": {"CDCP1; Pten−/− MEFs [1]": {"tested_on": "CDCP1; Pten−/− MEFs", "assay": "Proliferation assay (crystal violet) in MEFs", "format": "cell-based, mouse", "conditions": "saracatinib 100 nM vs DMSO"}, "CDCP1; Pten−/− MEFs [2]": {"tested_on": "CDCP1; Pten−/− MEFs", "assay": "Cellular senescence assay (SA-β-gal) in MEFs", "format": "cell-based, mouse", "conditions": "saracatinib"}}, "note": "At least one structure is not confirmed: it was looked up by name or label, or the drawing left a doubt."}
{"smiles": "CN1CCN(CCOc2cc(OC3CCOCC3)c3c(Nc4c(Cl)ccc5c4OCO5)ncnc3c2)CC1", "note": "[saracatinib]", "values": [{"measurement": "proliferation (fold change in growth by crystal violet)", "setting": "CDCP1; Pten−/− MEFs [1]", "value": "profound arrest in the proliferation"}, {"measurement": "senescence", "setting": "CDCP1; Pten−/− MEFs [2]", "value": "reactivation of senescence"}]}
